Some of these results come from one statement about several compounds together.
System: protease from Conidiobolus brefeldianus MTCC 5185
Assay: Stability of protease in presence of organic solvents at 37° C.
Type: physicochemical
Details: 20% (v/v) solvent, pH 7, 120 min
Protocol: This example illustrates the effect of water miscible as well as water immiscible organic solvents on stability of crude protease at 37° C. […] Samples were removed at different time intervals and residual activity was estimated. Sample without organic solvent served as control.

Structure (SMILES): CC(C)=O [Acetone, acetone]
- Residual Activity (%) of protease, 120 min (listed as acetone): more than 50%

Structure (SMILES): CC#N [Acetonitrile, acetonitrile]
- Residual Activity (%) of protease, 120 min (listed as acetonitrile): less than 35%

Structure (SMILES): CO [Methanol, methanol]
- Residual Activity (%) of protease, 120 min (listed as methanol): more than 50%

— US20130115671A1, “ENZYMES FROM CONIDIOBOLUS BREFELDIANUS AND PROCESS FOR PREPARATION THEREOF” (Council of Scientific and Industrial Research, priority 2010, published 2013)
